According to paper PMC10643120 (Nature structural & molecular biology, 2023):
These are yes or no findings as the source states them, for the method shown. In cells and extracts the contact can be indirect. Binding can be weak; no strength is given. Sequences can lack the tags named with a protein.

Sequences of proteins named here, by UniProt entry; tags and fusion partners are left off. A change or cut given only in a name is not applied to a line headed by its entry.
UniProt B3FJX8: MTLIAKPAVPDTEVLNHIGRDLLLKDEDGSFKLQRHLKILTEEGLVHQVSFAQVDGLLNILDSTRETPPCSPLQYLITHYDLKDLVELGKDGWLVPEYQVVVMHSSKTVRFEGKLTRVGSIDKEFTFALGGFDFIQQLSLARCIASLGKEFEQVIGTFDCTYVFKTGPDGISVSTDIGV

How the values were obtained:
Assay in all cases: pull-down; His6-tagged gp2 co-expressed with the untagged partner in E. coli; Ni2+ pull-down, SDS-PAGE
[1] = molecular target: His6-tagged 201Φ2-1 gp2 (ChmB), wild type (Pseudomonas phage 201Φ2-1) (UniProt B3FJX8)
[2] = molecular target: His6-tagged 201Φ2-1 gp2 A145D (Pseudomonas phage 201Φ2-1)
[3] = molecular target: His6-tagged 201Φ2-1 gp2 Q53A (Pseudomonas phage 201Φ2-1)

Measured: binding

B1: 201Φ2-1 ChmA (gp105), full-length, untagged (protein, UniProt B3FIW8 1-631)
chain: MIRDTATNTTQTQAAPQQAPAQQFTQAPQEKPMQSTQSQPTPSYAGTGGINSQFTRSGNVQGGDARASEALTVFTRLKEQAVAQQDLADDFSILRFDRDQHQVGWSSLVIAKQISLNGQPVIAVRPLILPNNSIELPKRKTNIVNGMQTDVIESDIDVGTVFSAQYFNRLSTYVQNTLGKPGAKVVLAGPFPIPADLVLKDSELQLRNLLIKSVNACDDILALHSGERPFTIAGLKGQQGETLAAKVDIRTQPLHDTVGNPIRADIVVTTQRVRRNGQQENEFYETDVKLNQVAMFTNLERTPQAQAQTLFPNQQQVATPAPWVASVVITDVRNADGIQANTPEMYWFALSNAFRSTHGHAWARPFLPMTGVAKDMKDIGALGWMSALRNRIDTKAANFDDAQFGQLMLSQVQPNPVFQIDLNRMGETAQMDSLQLDAAGGPNAQKAAATIIRQINNLGGGGFERFFDHTTQPILERTGQVIDLGNWFDGDEKRDRRDLDNLAALNAAEGNENEFWGFYGAQLNPNLHPDLRNRQSRNYDRQYLGSTVTYTGKAERCTYNAKFIEALDRYLAEAGLQITMDNTSVLNSGQRFMGNSVIGNNMVSGQAQVHSAYAGTQGFNTQYQTGPSSFY
binds: all assays above
